Measurements: PMC10163288
Some of the results follow.

B1: il2ra_site1_1z92_sap_10_mot_HHH_b2_05172_af2_000000284_0001_1_18_H_._HHH_b1_03374_0002_0000400040_0000001_0_0001 (protein)
chain: DAREQMERDVELVAEHANVPSFSVEVENGKIEVTLEGTDWAVETAARILERLAKRAGVDVEVEVR
B2: il2ra_site1_1z92_normal_mot_HHH_b2_06308_af2_000000104_0001_1_20_H_._1120a227123fe120892103896c8fe6e4_0001_1_0001_0000100007_0000001_0_af2pred_0001_af2pred_1 (protein)
chain: DAHEVAERAAELVKEGNPEEAERLLEELVRKTGDPALKFLLEQVEKLLERGNLESVHKLLHAAAR
B3: il2ra_site2_2erj_normal_mot_64bd02d26d05ce9f1a62b616cea0b888_0001_af2_000000037_0001_36_50_H_._HHH_b1_04625_0001_0000100006_0000001_0 (protein)
chain: SSSSDEELRYAFEAAARLMHLISNGNPEEAQELVEEARRELERLGNPELAEALEELFEFALSSSS
B4: il2ra_site2_3nfp_normal_mot_HHH_b2_03978_000000149_0001_1_20_H_._HHH_b2_07914_0001_0000100004_0000001_0 (protein)
chain: SSSSDEEELEERVEELLEEAKKIEDPEEVAELLLEASALAYRYNDHELFAKIVEVFHRLNSSSSS
B5: il2ra_site2_2erj_normal_mot_6d5f7cbc25fed124e3eb7f952334b9cf_0001_af2_000000048_0001_1_13_H_._HHH_b1_04677_0001_0000500020_0000001_0 (protein)
chain: SSSSSDEEIRELFEEVLELFKRAESREEARELLHELLREAEELGDEALVRVIRYLLKSISSSSSS
B6: il2ra_site1_1z92_sap_26_mot_HHH_b2_02540_000000162_0001_1_16_H_._HHH_b2_07770_0001_0000300023_0000001_0_0001_af2pred_0001_af2pred_1 (protein)
chain: SEEEEIIQLLAEVAGLPPEAVERLVEQVRRLANVPPKDALRLTAKAALQITGDPRVEEALELAEK
B7: il2ra_site1_2b5i_sap_17_mot_HHH_b2_04463_000000268_0001_43_57_H_._HHH_b2_05280_af2_0001_0000100008_0000001_1_0001 (protein)
chain: SSSSSREETRELVRIVWRIRWEFGLSNEEAHELVELAAELLDEGVSVEEIKKLLEELAEELSSSS
B8: il2ra_site1_1z92_normal_mot_8b466c8ab6a4ea9d290724e70e8647ea_0001_000000211_0001_54_65_H_._f5bcb56c74c9f00413c49eba35dae90c_0001_af2_0001_0000200029_0000001_0_a … (protein)
chain: DPLAELKKRLEAAKSPALKVLETLEEAAKKGDKAAKYALANVERRLARGDPEAVERLLRKLGTRL
B9: il2ra_site2_2erj_sap_26_mot_HHH_b2_08311_000000155_0001_42_56_H_._HHH_b1_05305_af2_0001_0000500055_0000001_0_0001 (protein)
chain: SSSSDEELRRLFELASRLMEAIHRGDEELIEELQEEIRRLIEELNSDNAREVLEWLERHGSSSSS
B10: il2ra_site1_2b5i_normal_mot_HHH_b2_04910_000000118_0001_1_19_H_._HHH_b1_01633_0001_0000400027_0000001_0_af2pred_0001_af2pred (protein)
chain: SSSSDSREEVRELFEEANRLFKEGNPEEAEKILEEAEKLAKENNSPSLLKLIQAALREIRSSSSS

target: il2ra, P01589; assay: yeast display titration

Binder | apparent Kd
B1 | inactive: no binding seen
B2 | inactive: no binding seen
B3 | inactive: no binding seen
B4 | inactive: no binding seen
B5 | inactive: no binding seen
B6 | inactive: no binding seen
B7 | inactive: no binding seen
B8 | inactive: no binding seen
B9 | inactive: no binding seen
B10 | inactive: no binding seen

Laid out differently: entries from further up.
Binder	apparent Kd
B3	inactive: no binding seen
B9	inactive: no binding seen
